# Test results: the supplement of paper PMC8728848
# Some of the results follow.
# Experiments:
# Test in all cases: glycan array binding signal (z-score within array); higher = stronger binding
# Settings in all cases: glycan notation: IUPAC condensed, linker removed
# [1] = biological target: Gal(b1-3)GlcNAc(b1-2)Man(a1-3)[Gal(b1-3)GlcNAc(b1-2)Man(a1-6)]Man(b1-4)GlcNAc(b1-4)[Fuc(a1-6)]GlcNAc
# How it was run: (§1)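 Negative Z-scores can be read as non-binding. The Z-score is calculated within each array and then averaged across arrays of one protein sequence at different concentrations or buffers and across linkers. Arrays, 3228 in all, were curated from the Consortium for Functional Glycomics database and kept only where the protein sequence was available.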
# [2] = biological target: Gal(b1-3)GlcNAc(b1-2)Man(a1-3)[GlcNAc(b1-4)][Gal(b1-3)GlcNAc(b1-2)Man(a1-6)]Man(b1-4)GlcNAc(b1-4)GlcNAc
# How it was run: as §1
# [3] = biological target: Gal(b1-3)GlcNAc(b1-2)[Gal(b1-3)GlcNAc(b1-6)]Man(a1-6)[Gal(b1-3)GlcNAc(b1-2)Man(a1-3)]Man(b1-4)GlcNAc(b1-4)GlcNAc
# How it was run: as §1
# [4] = biological target: Gal(b1-3)GlcNAc(b1-3)Gal(b1-3)GlcNAc
# How it was run: as §1
# [5] = biological target: Gal(b1-3)GlcNAc(b1-3)Gal(b1-4)Glc
# How it was run: as §1
# [6] = biological target: Gal(b1-3)GlcNAc(b1-3)Gal(b1-4)GlcNAc
# How it was run: as §1
# [7] = biological target: Gal(b1-3)GlcNAc(b1-3)Gal(b1-4)GlcNAc(b1-2)Man(a1-3)[Gal(b1-3)GlcNAc(b1-3)Gal(b1-4)GlcNAc(b1-2)Man(a1-6)]Man(b1-4)GlcNAc(b1-4)GlcNAc
# How it was run: as §1
# [8] = biological target: Gal(b1-3)GlcNAc(b1-3)Gal(b1-4)GlcNAc(b1-2)[Gal(b1-3)GlcNAc(b1-3)Gal(b1-4)GlcNAc(b1-6)]Man(a1-6)[Gal(b1-3)GlcNAc(b1-3)Gal(b1-4)GlcNAc(b1-2)Man(a1-3)]Man(b1-4)GlcNAc(b1-4)[Fuc(a1-6)]GlcNAc
# How it was run: as §1
# [9] = biological target: Gal(b1-3)GlcNAc(b1-3)Gal(b1-4)GlcNAc(b1-3)Gal(b1-4)GlcNAc(b1-2)[Gal(b1-3)GlcNAc(b1-3)Gal(b1-4)GlcNAc(b1-3)Gal(b1-4)GlcNAc(b1-6)]Man(a1-6)[Gal(b1-3)GlcNAc(b1-3)Gal(b1-4)GlcNAc(b1-3)Gal(b1-4)GlcNAc(b1-2)Man(a1-3)]Man(b1-4)GlcNAc(b1-4)[Fuc(a1-6)]GlcNAc
# How it was run: as §1
# [10] = biological target: Gal(b1-3)GlcNAc(b1-3)Gal(b1-4)GlcNAc(b1-6)[Gal(b1-3)GlcNAc(b1-3)]Gal(b1-4)Glc
# How it was run: as §1
# [11] = biological target: Gal(b1-3)GlcNAc(b1-3)Gal(b1-4)[Fuc(a1-3)]GlcNAc
# How it was run: as §1
# [12] = biological target: Gal(b1-3)GlcNAc(b1-3)Gal(b1-4)[Fuc(a1-3)]GlcNAc(b1-6)[Gal(b1-3)GlcNAc(b1-3)]Gal(b1-4)Glc
# How it was run: as §1
# [13] = biological target: Gal(b1-3)GlcNAc(b1-3)GalNAc
# How it was run: as §1
# [14] = biological target: Gal(b1-3)GlcNAc(b1-6)Gal(b1-4)GlcNAc
# How it was run: as §1
# [15] = biological target: Gal(b1-3)GlcNAc(b1-6)GalNAc
# How it was run: as §1
# [16] = biological target: Gal(b1-3)GlcNAc(b1-6)[Gal(b1-3)]GalNAc
# How it was run: as §1
# Gal(b1-3)GlcNAc6S = biological target: Gal(b1-3)GlcNAc6S
# How it was run: as §1
# [17] = biological target: Gal(b1-3)[Fuc(a1-4)]GlcNAc
# How it was run: as §1
# [18] = biological target: Gal(b1-3)[Fuc(a1-4)]GlcNAc(b1-2)Man
# How it was run: as §1
# [19] = biological target: Gal(b1-3)[Fuc(a1-4)]GlcNAc(b1-2)Man(a1-3)[Gal(b1-3)[Fuc(a1-4)]GlcNAc(b1-2)Man(a1-6)]Man(b1-4)GlcNAc(b1-4)[Fuc(a1-6)]GlcNAc
# How it was run: as §1
# [20] = biological target: Gal(b1-3)[Fuc(a1-4)]GlcNAc(b1-3)Gal(b1-3)[Fuc(a1-4)]GlcNAc
# How it was run: as §1
# [21] = biological target: Gal(b1-3)[Fuc(a1-4)]GlcNAc(b1-3)Gal(b1-4)[Fuc(a1-3)]GlcNAc
# How it was run: as §1
# [22] = biological target: Gal(b1-3)[Fuc(a1-4)]GlcNAc(b1-6)GalNAc
# How it was run: as §1
# [23] = biological target: Gal(b1-3)[GlcNAc(b1-6)]GalNAc
# How it was run: as §1
# [24] = biological target: Gal(b1-3)[Neu5Ac(a2-6)]GalNAc
# How it was run: as §1
# [25] = biological target: Gal(b1-3)[Neu5Ac(a2-6)]GlcNAc(b1-4)Gal(b1-4)Glc
# How it was run: as §1
# [26] = biological target: Gal(b1-3)[Neu5Ac(b2-6)]GalNAc
# How it was run: as §1
# Gal(b1-4)Gal = biological target: Gal(b1-4)Gal
# How it was run: as §1
# [27] = biological target: Gal(b1-4)GalNAc(a1-3)[Fuc(a1-2)]Gal(b1-4)GlcNAc
# How it was run: as §1
# [28] = biological target: Gal(b1-4)GalNAc(b1-3)[Fuc(a1-2)]Gal(b1-4)GlcNAc
# How it was run: as §1
# Gal(b1-4)Glc = biological target: Gal(b1-4)Glc
# How it was run: as §1
# Gal(b1-4)Glc6S = biological target: Gal(b1-4)Glc6S
# How it was run: as §1
# Gal(b1-4)GlcNAc = biological target: Gal(b1-4)GlcNAc
# How it was run: as §1
# [29] = biological target: Gal(b1-4)GlcNAc(a1-6)Gal(b1-4)GlcNAc
# How it was run: as §1
# Gal(b1-4)GlcNAc(b1-2)Man = biological target: Gal(b1-4)GlcNAc(b1-2)Man
# How it was run: as §1
# [30] = biological target: Gal(b1-4)GlcNAc(b1-2)Man(a1-3)Man(b1-4)GlcNAc(b1-4)GlcNAc
# How it was run: as §1
# [31] = biological target: Gal(b1-4)GlcNAc(b1-2)Man(a1-3)[Gal(b1-4)GlcNAc(b1-2)Man(a1-6)]Man(b1-4)GlcNAc(b1-4)GlcNAc
# How it was run: as §1
binder,measurement,setting,value
Aap lectin (Staphylococcus epidermidis) (protein) VNLNYSSPFMSLLSMPADSSSNNTKNTIDIPPTTVKGRDNYDFYGRVDIESNPTDLNATNLTRYNYGQPPGTTTAGAVQFKNQVSFDKDFDFNIRVANNRQSNTTGADGWGFMFSKKDGDDFLKNGGILREKGTPSAAGFRIDTGYYNNDPLDKIQKQAGQGYRGYGTFVKNDSQGNTSKVGSGTPSTDFLNYADNTTNDLDGKFHGQKLNNVNLKYNASNQTFTATYAGKTWTATLSELGLSPTDSYNFLVTSS,glycan array binding signal (z-score),[1],1.5
same,glycan array binding signal (z-score),[2],0.743
same,glycan array binding signal (z-score),[3],-0.728
same,glycan array binding signal (z-score),[4],-0.888
same,glycan array binding signal (z-score),[5],-0.9
same,glycan array binding signal (z-score),[6],-0.563
same,glycan array binding signal (z-score),[7],-0.429
same,glycan array binding signal (z-score),[8],0.695
same,glycan array binding signal (z-score),[9],0.056
same,glycan array binding signal (z-score),[10],-0.349
same,glycan array binding signal (z-score),[11],-0.351
same,glycan array binding signal (z-score),[12],-0.569
same,glycan array binding signal (z-score),[13],0.183
same,glycan array binding signal (z-score),[14],-0.777
same,glycan array binding signal (z-score),[15],-0.284
same,glycan array binding signal (z-score),[16],0.191
same,glycan array binding signal (z-score),Gal(b1-3)GlcNAc6S,-0.857
same,glycan array binding signal (z-score),[17],-0.174
same,glycan array binding signal (z-score),[18],0.572
same,glycan array binding signal (z-score),[19],1.15
same,glycan array binding signal (z-score),[20],-0.893
same,glycan array binding signal (z-score),[21],-0.909
same,glycan array binding signal (z-score),[22],1.01
same,glycan array binding signal (z-score),[23],-0.042
same,glycan array binding signal (z-score),[24],-0.302
same,glycan array binding signal (z-score),[25],-0.69
same,glycan array binding signal (z-score),[26],0.985
same,glycan array binding signal (z-score),Gal(b1-4)Gal,0.559
same,glycan array binding signal (z-score),[27],-0.883
same,glycan array binding signal (z-score),[28],-0.875
same,glycan array binding signal (z-score),Gal(b1-4)Glc,-0.698
same,glycan array binding signal (z-score),Gal(b1-4)Glc6S,-0.825
same,glycan array binding signal (z-score),Gal(b1-4)GlcNAc,0.132
same,glycan array binding signal (z-score),[29],-0.288
same,glycan array binding signal (z-score),Gal(b1-4)GlcNAc(b1-2)Man,3
same,glycan array binding signal (z-score),[30],-0.84
same,glycan array binding signal (z-score),[31],0.19

# Rewritten tab-delimited: part of the list above.
binder	measurement	setting	value
Aap lectin (Staphylococcus epidermidis) (protein) VNLNYSSPFMSLLSMPADSSSNNTKNTIDIPPTTVKGRDNYDFYGRVDIESNPTDLNATNLTRYNYGQPPGTTTAGAVQFKNQVSFDKDFDFNIRVANNRQSNTTGADGWGFMFSKKDGDDFLKNGGILREKGTPSAAGFRIDTGYYNNDPLDKIQKQAGQGYRGYGTFVKNDSQGNTSKVGSGTPSTDFLNYADNTTNDLDGKFHGQKLNNVNLKYNASNQTFTATYAGKTWTATLSELGLSPTDSYNFLVTSS	glycan array binding signal (z-score)	[23]	-0.042
same	glycan array binding signal (z-score)	[24]	-0.302
same	glycan array binding signal (z-score)	[25]	-0.69
